Laboratory results reported in publication PMC11677126, “Synthesis and Structure–Activity Relationship of Thiourea Derivatives Against Leishmania amazonensis” (Pharmaceuticals, 2024).

System: L. amazonensis intracellular amastigotes
Assay: Antiamastigote assay in infected peritoneal macrophages (infection index)
Assay type: cell-based, Leishmania amazonensis
Details: selectivity index, macrophage CC50 versus amastigote IC50
Experimental: Resident macrophages from BALB/c mice were obtained by peritoneal lavage with 5 mL of cold RPMI medium. The cell suspension was adjusted to a 2 × 10^6 cells/mL concentration and plated in LAB-TEK chambers. After 1 h, the cultures were washed with phosphate-buffered saline at 37 °C to remove non-adherent cells. The remaining cells were incubated at 37 °C/5% CO2 with promastigotes of L. amazonensis at a ratio of 3:1. After 3 h, the chambers were rewashed to remove free parasites. […] For G2, we first tested only at a concentration of 10 µM, and derivatives with inhibition above 60% were evaluated using the dose–response curve. The antiamastigote activity was evaluated microscopically after staining the chambers with the Instant Prov hematological dye system (Newprov, Curitiba, Brazil); at least 100 macrophages were counted per sample. The results were expressed as the infection index (IF) using the following formula: IF = % infected cells X (number of amastigotes/total macrophages). The IC50 value was determined by nonlinear regression using Graph Pad Prism 9.0.

Structure (SMILES) | SI (G1 thioureas) | SI (G2 piperazine thioureas)
S=C(Nc1ccccc1)Nc1ccccn1 [Thiourea 3d] | >37 | 
S=C(Nc1ccccc1)Nc1ccc(Br)cc1 [Thiourea 3p] | >45.9 | 
S=C(NCc1ccccc1)N1CCN(C(c2ccccc2)c2ccccc2)CC1 [Thiourea 5h] |  | >14.2
COc1cc(NC(=S)N2CCN(C(c3ccccc3)c3ccccc3)CC2)cc(OC)c1OC [Thiourea 5t] |  | 16.6
